In paper PMC5025757, “Sequences flanking the core-binding site modulate glucocorticoid receptor structure and activity”:
Substitutions are numbered along the chain they refer to. The exact form of at least one protein or probe is not confirmed. At least one verdict rests on a figure or table, not on a statement of the authors. Tags and fusion partners may be left off the protein sequences shown.

Key:
[1] = molecular target: T1, GR DBD A477T (dim mutant) (rat) (UniProt P06536); assay: NMR (15N-HSQC); settings: NMR: 20 mM Na phosphate, 100 mM NaCl, 1 mM DTT, pH 6.7, 5% D2O, imino titration at 25 C; recombinant protein; residues 440-525
T1 sequence (looked up): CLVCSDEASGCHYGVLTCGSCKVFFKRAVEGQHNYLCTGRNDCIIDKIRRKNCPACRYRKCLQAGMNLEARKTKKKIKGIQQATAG

GR DBD wild type (rat) = molecular target: T2, GR DBD wild type (rat) (UniProt P06536); assay: EMSA; settings: value only in figure; EMSA: 20 mM Tris pH 7.5, 2 mM MgCl2, 1 mM EDTA, 10% glycerol, 0.3 mg/ml BSA, 4 mM DTT, 0.05 ug/ul dIdC, 1.25 nM DNA, 30 min; recombinant protein; residues 440-525; label: Cy5 5' of strand 1
T2 sequence (looked up): T1 sequence (looked up) with T38A

“GCCAAGAACATTTTGTACGTCTCG (double strand) [Cgt A-T NMR]”: binds [1].
“GCCGAGAACATTTTGTACGCCTCG (double strand) [Cgt G-C NMR]”: binds [1].
“TACCAAGAACATTTTGTACGTCTCG (double strand) [CA-Cgt-TC EMSA]”: binds (GR DBD wild type (rat)).
“TACTAAGAACATTTTGTACGTATCG (double strand) [TA-Cgt-TA EMSA]”: binds (GR DBD wild type (rat)).
